Results are given in words; binding and its absence hold for the method and conditions named. Binding can be weak; no strength is given.

Experiment [1] addresses albumin domain III (DIII). In words: MST; Monolith NT.115, standard capillaries, 25 °C, 67 mM NaPO4, 150 mM NaCl, 0.05% Tween 20, pH 7.4 + 1 mM CaCl2; albumin labelled with a fluorescent dye (1:1), cubilin domain unlabelled; both purified.
The target in experiment [2] is albumin FcRn mutant, H464A. The experiment is described as above.

B1: PNGaseF-deglycosylated CUB7,8 (domain or fragment, rat, UniProt O70244 1165-1389, looked up)
chain: CGGNLTTPTGVLTSPNYPMPYYHSSECYWRLEASHGSPFELEFQDFHLEHHPSCSLDYLAVFDGPTTNSRLIDKLCGDTTPAPIRSNKDVVLLKLRTDAGQQGRGFEINFRQRCDNVVIVNKTSGILESINYPNPYDKNQRCNWTIQATTGNTVNYTFLGFDVESYMNCSTDYVELYDGPQWMGRYCGNNMPPPGATTGSQLHVLFHTDGINSGEKGFKMQWFTH
modifications: N-glycans removed with PNGaseF
notes: cubilin, rat, CUB7 (1165–1277) and CUB8 (1278–1389) of full length cubilin UniProtKB O70244; also called CUB7,8 after PNGaseF treatment (+); His tagged CUB7,8 domain; not shown: His6, C-terminal, kept
Regarding B1, the binding result in experiment [1] and in experiment [2] was “binds” in each case.

These data come from paper PMC9485058, “Glycosylation of a key cubilin Asn residue results in reduced binding to albumin” (The Journal of Biological Chemistry, 2022).
